Reference: patent US5830851A (Affymax Technologies N.V., priority 1995, dated 1998)
At least one peptide structure holds a part that was inferred or is arguable (an end, a ring closure or a residue). Residues, ends and D or L forms follow the SMILES beside them.

Test system: Female BDF1 mice
Assay: Polycythemic exhypoxic mouse bioassay
Type: in vivo
Settings: approximate equivalency

Compound | Amount of Peptide Equivalent to 0.025 units of EPO [nmol]
CC(C)C[C@@H]1NC(=O)[C@@H]2CCCN2C(=O)CNC(=O)[C@H](Cc2ccccc2)NC(=O)[C@H](Cc2c[nH]cn2)NC(=O)[C@@H](NC(=O)[C@H](CO)NC(=O)[C@H](Cc2ccc(O)cc2)NC(=O)[C@@H](NC(=O)CNC(=O)CN)[C@@H](C)O)CSSC[C@@H](C(=O)N[C@@H](CCCCN)C(=O)N2CCC[C@H]2C(=O)N[C@@H](CCC(N)=O)C(N)=O)NC(=O)[C@H](C(C)C)NC(=O)[C@H](Cc2c[nH]c3ccccc23)NC(=O)[C@H]([C@@H](C)O)NC1=O [RWJ 61596] (HELM PEPTIDE1{G.G.T.Y.S.C.H.F.G.P.L.T.W.V.C.K.P.Q.[am]}$PEPTIDE1,PEPTIDE1,6:R3-15:R3$$$V2.0) | 0.5
CC(C)C[C@@H]1NC(=O)[C@@H]2CCCN2C(=O)CNC(=O)[C@H](Cc2ccccc2)NC(=O)[C@H](Cc2c[nH]cn2)NC(=O)[C@@H](NC(=O)[C@H](CO)NC(=O)[C@H](Cc2ccc(O)cc2)NC(=O)[C@H](CCCCN)NC(=O)[C@H](CCCNC(=N)N)NC(=O)CNC(=O)[C@@H](N)CC(C)C)CSSC[C@@H](C(=O)N[C@@H](CCC(N)=O)C(=O)N2CCC[C@H]2C(=O)N[C@@H](C)C(=O)N[C@@H](CCCCN)C(=O)N[C@@H](CCCCN)C(=O)N[C@@H](CC(=O)O)C(N)=O)NC(=O)[C@H](C(C)C)NC(=O)[C@H](Cc2c[nH]c3ccccc23)NC(=O)[C@H]([C@@H](C)O)NC1=O [RWJ 61757] (HELM PEPTIDE1{L.G.R.K.Y.S.C.H.F.G.P.L.T.W.V.C.Q.P.A.K.K.D.[am]}$PEPTIDE1,PEPTIDE1,7:R3-16:R3$$$V2.0) | 3.1
